In paper doi:10.1101/276733:
These are yes or no findings as the source states them, for the method shown. Some binding calls cover weakened binding; strength is not graded here.

Amino acid sequences for entries named in this document (tags omitted). Residues count along the entry.
UniProt Q10589, residues 1-21: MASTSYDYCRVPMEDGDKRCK
UniProt P84077, residues 17-181: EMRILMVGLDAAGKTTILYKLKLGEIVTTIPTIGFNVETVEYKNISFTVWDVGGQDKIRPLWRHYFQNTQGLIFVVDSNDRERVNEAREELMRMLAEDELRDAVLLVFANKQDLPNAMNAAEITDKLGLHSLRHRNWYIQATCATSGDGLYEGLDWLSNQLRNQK

Molecular target: T1, AP-1 µ1 subunit (in the AP-1 core) (UniProt P35585)
T1 sequence: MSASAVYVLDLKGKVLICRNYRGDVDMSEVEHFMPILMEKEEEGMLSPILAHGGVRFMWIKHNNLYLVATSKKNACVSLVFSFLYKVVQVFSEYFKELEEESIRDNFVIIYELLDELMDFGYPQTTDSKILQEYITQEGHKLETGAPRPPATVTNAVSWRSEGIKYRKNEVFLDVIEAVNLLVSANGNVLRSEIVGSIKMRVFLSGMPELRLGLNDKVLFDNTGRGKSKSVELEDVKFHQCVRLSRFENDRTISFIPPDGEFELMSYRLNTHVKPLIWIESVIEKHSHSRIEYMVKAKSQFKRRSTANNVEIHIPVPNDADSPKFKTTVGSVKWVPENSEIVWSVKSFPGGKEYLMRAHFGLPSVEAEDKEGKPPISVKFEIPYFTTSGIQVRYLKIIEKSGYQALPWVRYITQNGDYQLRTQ
Experiment: cryo-EM structure

| Substance | binding |
| --- | --- |
| cytosolic tail of human tetherin (1-21) (from UniProt Q10589 1-21) (domain or fragment) | binds |
| Arf1-GTP (from UniProt P84077 17-181) | binds |
